Results deposited as PubChem BioAssay AID1259327 (Drosophila RNAi Screening Center, 2017)

Screen: 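Data from controls in screens of zinc and manganese toxicity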
System: Drosophila S2R+ cells
Knock-down reagent: long dsRNA against Drosophila genes
Timing: 5 days (water added on day 4, read one day later)
Challenge: water added as vehicle, no metal, one day before read-out
Detection: 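Luciferase ATP signal per well, normalised to plate mean, duplicate average converted to z-score across plates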
Scale: ATP z-score: higher = more total ATP than typical wells; ATP luminescence: higher = more total ATP
Call rule: 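a hit is any knock-down whose absolute ATP z-score is greater than 1.5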
Meaning of the calls: active = hit: ATP up or down; inactive = no clear ATP change
In all, the deposit lists about 3,100 reagents; below is a random part of them. 378 of all reagents (12%) were called active. 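Hits include both directions; z-score sign shows ATP rise or fall; raw luminescence values are not plate-normalised.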 Reagents against one gene are numbered here. The record does not give: the amount of reagent.

| target gene | reagent | ATP z-score, duplicate mean | ATP luminescence, replicate 1 (RLU) | ATP luminescence, replicate 2 (RLU) | call |
| --- | --- | --- | --- | --- | --- |
| CG9664 | 1 | -0.286 | 4.83e5 | 4.33e5 | inactive |
| sax (saxophone) | 1 | -0.756 | 5.85e5 | 7.18e5 | inactive |
| sax (saxophone) | 2 | 1.56 | 9.28e5 | 9.15e5 | active |
| sax (saxophone) | 3 | 0.0635 | 4.46e5 | 7.27e5 | inactive |
| Oatp30B (Organic anion transporting polypeptide 30B) | 1 | 0.267 | 5.05e5 | 4.90e5 | inactive |
| Oatp30B (Organic anion transporting polypeptide 30B) | 2 | -0.764 | 5.18e5 | 5.20e5 | inactive |
| kcc (kazachoc) | 1 | -0.922 | 5.01e5 | 7.68e5 | inactive |
| kcc (kazachoc) | 2 | -0.459 | 7.18e5 | 6.37e5 | inactive |
| Ir41a (Ionotropic receptor 41a) | 1 | -0.147 | 7.41e5 | 7.11e5 | inactive |
| Ir41a (Ionotropic receptor 41a) | 2 | -0.341 | 7.48e5 | 6.33e5 | inactive |
| CG6125 | 1 | -0.166 | 3.09e5 | 6.99e5 | inactive |
| Nup133 (Nucleoporin 133kD) | 1 | -0.504 | 6.97e5 | 6.12e5 | inactive |
| Mdr50 (Multi drug resistance 50) | 1 | -1.86 | 4.33e5 | 4.68e5 | active |
| Mdr50 (Multi drug resistance 50) | 2 | 0.932 | 9.70e5 | 9.62e5 | inactive |
| Nrg (Neuroglian) | 1 | 1.39 | 8.26e5 | 6.64e5 | inactive |
| Nrg (Neuroglian) | 2 | 0.317 | 6.95e5 | 7.80e5 | inactive |
| Nrg (Neuroglian) | 3 | -1.28 | 7.71e5 | 9.54e5 | inactive |
| CG42288 | 1 | 0.701 | 7.99e5 | 5.67e5 | inactive |
| TyrR (Tyramine receptor) | 1 | 0.153 | 3.29e5 | 7.21e5 | inactive |
| TyrR (Tyramine receptor) | 2 | 1.74 | 6.39e5 | 5.26e5 | active |
| Gr58a (Gustatory receptor 58a) | 1 | 0.0221 | 7.14e5 | 7.77e5 | inactive |
| MFS18 (Major Facilitator Superfamily Transporter 18) | 1 | 0.338 | 4.30e5 | 5.81e5 | inactive |
| MFS18 (Major Facilitator Superfamily Transporter 18) | 2 | 1.14 | 5.90e5 | 4.94e5 | inactive |
| 5-HT7 (5-hydroxytryptamine (serotonin) receptor 7) | 1 | 0.794 | 7.80e5 | 7.95e5 | inactive |
| 5-HT7 (5-hydroxytryptamine (serotonin) receptor 7) | 2 | 0.791 | 9.33e5 | 9.64e5 | inactive |
| mtt (mangetout) | 1 | -0.1 | 7.27e5 | 7.36e5 | inactive |
| mtt (mangetout) | 2 | -0.412 | 6.91e5 | 7.04e5 | inactive |
| mtt (mangetout) | 3 | 1.09 | 6.54e5 | 7.82e5 | inactive |
